Measurements published in PMC7933334, “The methyltransferase SETD2 couples transcription and splicing by engaging mRNA processing factors through its SHI domain” (Nature Communications, 2021).

Protein sequences, listed by entry. Tags and fused reporters are not part of them.
UniProt P09012: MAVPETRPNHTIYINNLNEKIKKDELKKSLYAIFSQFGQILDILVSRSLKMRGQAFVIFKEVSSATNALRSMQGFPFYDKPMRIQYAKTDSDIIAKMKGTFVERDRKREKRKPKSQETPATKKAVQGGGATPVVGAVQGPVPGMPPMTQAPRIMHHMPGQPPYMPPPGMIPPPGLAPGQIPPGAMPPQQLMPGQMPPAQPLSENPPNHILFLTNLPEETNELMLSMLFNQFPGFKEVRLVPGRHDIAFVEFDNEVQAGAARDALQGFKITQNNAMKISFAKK
UniProt P26599: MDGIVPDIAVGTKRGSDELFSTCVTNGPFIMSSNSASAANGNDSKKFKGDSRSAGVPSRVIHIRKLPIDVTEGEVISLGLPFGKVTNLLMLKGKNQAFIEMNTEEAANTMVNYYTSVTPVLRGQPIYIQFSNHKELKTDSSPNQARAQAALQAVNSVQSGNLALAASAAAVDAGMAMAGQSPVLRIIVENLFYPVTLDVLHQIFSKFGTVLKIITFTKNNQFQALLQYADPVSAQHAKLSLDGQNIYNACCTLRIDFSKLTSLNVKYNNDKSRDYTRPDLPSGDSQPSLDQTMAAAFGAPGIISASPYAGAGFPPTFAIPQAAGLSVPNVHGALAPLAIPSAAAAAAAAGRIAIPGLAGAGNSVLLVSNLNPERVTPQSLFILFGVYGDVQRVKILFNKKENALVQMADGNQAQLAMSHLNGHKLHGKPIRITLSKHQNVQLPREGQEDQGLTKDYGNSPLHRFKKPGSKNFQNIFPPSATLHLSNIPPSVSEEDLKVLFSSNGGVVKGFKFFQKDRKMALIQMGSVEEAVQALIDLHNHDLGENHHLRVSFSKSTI
UniProt P11940: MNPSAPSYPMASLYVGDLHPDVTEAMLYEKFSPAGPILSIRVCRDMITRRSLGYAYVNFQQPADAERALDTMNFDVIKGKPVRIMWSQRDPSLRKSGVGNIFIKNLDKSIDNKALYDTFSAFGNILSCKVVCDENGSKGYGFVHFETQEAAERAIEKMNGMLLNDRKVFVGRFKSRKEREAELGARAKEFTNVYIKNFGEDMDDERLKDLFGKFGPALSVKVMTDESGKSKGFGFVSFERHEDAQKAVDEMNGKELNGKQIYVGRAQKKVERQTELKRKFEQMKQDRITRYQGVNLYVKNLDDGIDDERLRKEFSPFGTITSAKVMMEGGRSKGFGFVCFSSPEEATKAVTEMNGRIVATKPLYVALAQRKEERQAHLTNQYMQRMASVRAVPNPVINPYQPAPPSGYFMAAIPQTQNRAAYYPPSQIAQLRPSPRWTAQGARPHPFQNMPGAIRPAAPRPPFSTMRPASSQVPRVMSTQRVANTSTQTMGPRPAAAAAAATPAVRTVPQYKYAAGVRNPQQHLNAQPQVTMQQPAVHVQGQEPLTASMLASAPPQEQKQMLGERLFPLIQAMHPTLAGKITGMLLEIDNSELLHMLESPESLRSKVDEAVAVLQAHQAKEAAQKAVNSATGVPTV
UniProt O75494: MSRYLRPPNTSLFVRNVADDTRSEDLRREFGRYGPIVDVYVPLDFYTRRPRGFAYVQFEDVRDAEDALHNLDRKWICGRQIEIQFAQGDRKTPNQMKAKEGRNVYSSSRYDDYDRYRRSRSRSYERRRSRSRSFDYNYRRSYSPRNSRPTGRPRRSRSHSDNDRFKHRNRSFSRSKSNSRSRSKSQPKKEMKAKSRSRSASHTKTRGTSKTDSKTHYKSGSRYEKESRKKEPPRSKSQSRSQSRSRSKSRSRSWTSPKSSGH

Assays:
Assay in all cases: affinity purification with mass spectrometry; Halo-tagged bait expressed in 293T; extract (150 mM NaCl, 1% Triton X-100, diluted 1:3) on Magne HaloTag beads overnight at 4 °C, wash with 300 mM NaCl, elution with AcTEV; MudPIT of endogenous co-purified proteins against a mock; lysate with or without RNase where stated; SETD2C also from cells treated with siRNA to hnRNP L
[1] = target: T1, Halo-SETD2 1404–2564 (SETD2C) (human) (UniProt Q9BYW2)
T1 sequence: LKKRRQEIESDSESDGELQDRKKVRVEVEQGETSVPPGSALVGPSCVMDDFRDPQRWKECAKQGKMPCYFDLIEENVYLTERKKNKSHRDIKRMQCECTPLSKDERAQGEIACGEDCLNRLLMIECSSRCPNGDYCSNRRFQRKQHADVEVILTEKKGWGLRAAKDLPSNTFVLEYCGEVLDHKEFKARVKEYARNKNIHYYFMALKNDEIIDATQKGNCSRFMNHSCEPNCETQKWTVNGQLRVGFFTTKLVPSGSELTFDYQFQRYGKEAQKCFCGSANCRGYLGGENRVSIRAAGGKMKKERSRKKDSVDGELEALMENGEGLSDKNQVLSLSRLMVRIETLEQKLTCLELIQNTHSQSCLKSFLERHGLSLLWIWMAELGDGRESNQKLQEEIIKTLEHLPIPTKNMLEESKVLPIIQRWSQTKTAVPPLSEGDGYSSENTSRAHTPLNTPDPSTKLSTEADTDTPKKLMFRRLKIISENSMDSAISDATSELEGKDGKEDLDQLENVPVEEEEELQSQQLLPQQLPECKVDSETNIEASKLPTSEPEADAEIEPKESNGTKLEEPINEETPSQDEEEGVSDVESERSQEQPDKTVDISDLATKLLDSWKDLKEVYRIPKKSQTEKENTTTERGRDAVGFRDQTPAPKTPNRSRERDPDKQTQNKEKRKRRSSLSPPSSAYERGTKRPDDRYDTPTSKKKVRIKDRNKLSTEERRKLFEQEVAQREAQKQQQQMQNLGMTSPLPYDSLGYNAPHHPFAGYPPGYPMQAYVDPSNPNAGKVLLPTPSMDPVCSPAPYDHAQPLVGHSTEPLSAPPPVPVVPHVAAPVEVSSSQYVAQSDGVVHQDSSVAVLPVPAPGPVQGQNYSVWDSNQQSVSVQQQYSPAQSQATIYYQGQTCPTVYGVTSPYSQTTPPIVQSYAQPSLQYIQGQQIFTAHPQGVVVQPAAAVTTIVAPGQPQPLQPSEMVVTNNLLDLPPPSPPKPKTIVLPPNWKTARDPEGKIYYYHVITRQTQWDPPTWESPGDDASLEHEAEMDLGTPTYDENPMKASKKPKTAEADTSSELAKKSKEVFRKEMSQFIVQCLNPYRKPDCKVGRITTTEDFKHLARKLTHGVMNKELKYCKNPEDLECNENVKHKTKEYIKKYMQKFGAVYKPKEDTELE

[2] = target: T2, Halo-hnRNP L 162–321 (human) (UniProt P14866)
T2 sequence: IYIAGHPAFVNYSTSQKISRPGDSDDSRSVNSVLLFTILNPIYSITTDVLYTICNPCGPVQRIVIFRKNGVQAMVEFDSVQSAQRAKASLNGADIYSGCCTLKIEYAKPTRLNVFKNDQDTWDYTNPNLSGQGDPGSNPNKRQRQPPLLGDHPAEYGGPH

[3] = target: T1, Halo-SETD2 1404–2564 (SETD2C) (human); remark: listed apart in the source
[4] = target: Halo-FLAG-SETD2CΔSRI (human) (UniProt Q9BYW2)
[5] = target: T3, Halo-SETD2 2114–2263 (human) (UniProt Q9BYW2)
T3 sequence: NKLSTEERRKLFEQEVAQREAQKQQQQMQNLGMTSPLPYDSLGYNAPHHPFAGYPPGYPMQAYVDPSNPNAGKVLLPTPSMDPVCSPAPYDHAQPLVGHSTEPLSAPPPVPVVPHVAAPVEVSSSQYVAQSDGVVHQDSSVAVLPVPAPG

[6] = target: T4, Halo-tagged SETD2 fragment 1964–2263 (human) (UniProt Q9BYW2)
T4 sequence: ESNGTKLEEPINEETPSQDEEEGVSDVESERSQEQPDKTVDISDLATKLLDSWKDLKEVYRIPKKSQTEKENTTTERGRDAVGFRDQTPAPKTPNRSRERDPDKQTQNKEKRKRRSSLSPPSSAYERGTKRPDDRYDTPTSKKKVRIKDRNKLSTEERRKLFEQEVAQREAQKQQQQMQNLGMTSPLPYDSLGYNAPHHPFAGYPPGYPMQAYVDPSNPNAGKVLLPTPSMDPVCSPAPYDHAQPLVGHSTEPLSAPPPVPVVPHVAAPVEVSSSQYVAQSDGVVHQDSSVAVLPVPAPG

[7] = target: T5, Halo-tagged SETD2 fragment 2164–2213 (human) (UniProt Q9BYW2)
T5 sequence: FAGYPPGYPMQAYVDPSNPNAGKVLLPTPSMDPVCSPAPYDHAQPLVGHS

binding [1]: binds
Molecule: U1 small nuclear ribonucleoprotein A (from UniProt P09012 1-282)

binding [2]: binds
B1: Med23 (protein, UniProt Q9ULK4 1-1368)
chain: METQLQSIFEEVVKTEVIEEAFPGMFMDTPEDEKTKLISCLGAFRQFWGGLSQESHEQCIQWIVKFIHGQHSPKRISFLYDCLAMAVETGLLPPRLVCESLINSDTLEWERTQLWALTFKLVRKIIGGVDYKGVRDLLKVILEKILTIPNTVSSAVVQQLLAAREVIAYILERNACLLPAYFAVTEIRKLYPEGKLPHWLLGNLVSDFVDTFRPTARINSICGRCSLLPVVNNSGAICNSWKLDPATLRFPLKGLLPYDKDLFEPQTALLRYVLEQPYSRDMVCNMLGLNKQHKQRCPVLEDQLVDLVVYAMERSETEEKFDDGGTSQLLWQHLSSQLIFFVLFQFASFPHMVLSLHQKLAGRGLIKGRDHLMWVLLQFISGSIQKNALADFLPVMKLFDLLYPEKEYIPVPDINKPQSTHAFAMTCIWIHLNRKAQNDNSKLQIPIPHSLRLHHEFLQQSLRNKSLQMNDYKIALLCNAYSTNSECFTLPMGALVETIYGNGIMRIPLPGTNCMASGSITPLPMNLLDSLTVHAKMSLIHSIATRVIKLAHAKSSVALAPALVETYSRLLVYMEIESLGIKGFISQLLPTVFKSHAWGILHTLLEMFSYRMHHIQPHYRVQLLSHLHTLAAVAQTNQNQLHLCVESTALRLITALGSSEVQPQFTRFLSDPKTVLSAESEELNRALILTLARATHVTDFFTGSDSIQGTWCKDILQTIMSFTPHNWASHTLSCFPGPLQAFFKQNNVPQESRFNLKKNVEEEYRKWKSMSNENDIITHFSMQGSPPLFLCLLWKMLLETDHINQIGYRVLERIGARALVAHVRTFADFLVYEFSTSAGGQQLNKCIEILNDMVWKYNIVTLDRLILCLAMRSHEGNEAQVCYFIIQLLLLKPNDFRNRVSDFVKENSPEHWLQNDWHTKHMNYHKKYPEKLYFEGLAEQVDPPVQIQSPYLPIYFGNVCLRFLPVFDIVIHRFLELLPVSKSLETLLDHLGGLYKFHDRPVTYLYNTLHYYEMHLRDRAFLKRKLVHAIIGSLKDNRPQGWCLSDTYLKCAMNAREENPWVPDDTYYCRLIGRLVDTMAGKSPGPFPNCDWRFNEFPNPAAHALHVTCVELMALAVSGKEVGNALLNVVLKSQPLVPRENITAWMNAIGLIITALPEPYWIVLHDRIVSVISSPSLTSETEWVGYPFRLFDFTACHQSYSEMSCSYTLALAHAVWHHSSIGQLSLIPKFLTEVLLPIVKTEFQLLYVYHLVGPFLQRFQQERTRCMIEIGVAFYDMLLNVDQCSTHLNYMDPICDFLYHMKYMFTGDSVKEQVEKIICNLKPALKLRLRFITHISKMEPAAVPPQAMNSGSPAPQSNQVPVSLPVTQ

binding [3]: binds
B2: serine/arginine-rich splicing factor 3 (protein, UniProt P84103 1-164)
chain: MHRDSCPLDCKVYVGNLGNNGNKTELERAFGYYGPLRSVWVARNPPGFAFVEFEDPRDAADAVRELDGRTLCGCRVRVELSNGEKRSRNRGPPPSWGRRPRDDYRRRSPPPRRRSPRRRSFSRSRSRSLSRDRRRERSLSRERNHKPSRSFSRSRSRSRSNERK

Second part, the molecule before the results:

Molecule: polypyrimidine tract binding protein 1 (from UniProt P26599 1-557)
binding [1]: binds

Molecule: polyadenylate-binding protein 1 (from UniProt P11940 1-636)
binding [1]: binds

Molecule: serine/arginine-rich splicing factor 10 (from UniProt O75494 1-262)
binding [1]: binds

B3: hnRNP L (endogenous) (protein, UniProt P14866 1-589)
chain: MSRRLLPRAEKRRRRLEQRQQPDEQRRRSGAMVKMAAAGGGGGGGRYYGGGSEGGRAPKRLKTDNAGDQHGGGGGGGGGAGAAGGGGGGENYDDPHKTPASPVVHIRGLIDGVVEADLVEALQEFGPISYVVVMPKKRQALVEFEDVLGACNAVNYAADNQIYIAGHPAFVNYSTSQKISRPGDSDDSRSVNSVLLFTILNPIYSITTDVLYTICNPCGPVQRIVIFRKNGVQAMVEFDSVQSAQRAKASLNGADIYSGCCTLKIEYAKPTRLNVFKNDQDTWDYTNPNLSGQGDPGSNPNKRQRQPPLLGDHPAEYGGPHGGYHSHYHDEGYGPPPPHYEGRRMGPPVGGHRRGPSRYGPQYGHPPPPPPPPEYGPHADSPVLMVYGLDQSKMNCDRVFNVFCLYGNVEKVKFMKSKPGAAMVEMADGYAVDRAITHLNNNFMFGQKLNVCVSKQPAIMPGQSYGLEDGSCSYKDFSESRNNRFSTPEQAAKNRIQHPSNVLHFFNAPLEVTEENFFEICDELGVKRPSSVKVFSGKSERSSSGLLEWESKSDALETLGFLNHYQMKNPNGPYPYTLKLCFSTAQHAS
binding [4]: binds
binding [3]: binds
binding [5]: binds
binding [6]: binds
binding [7]: binds

Where two headings read alike, the source gives them in different places. These are yes or no findings as the source states them, for the method shown. Binding seen in cells or lysates may run through a third protein. These calls come from enrichment with a bait or labelling near it, and not all partners need be listed. For some assays here: Tags and fused reporters may be left off the sequences shown. One block for each molecule: values may come before it.
